From patent publication US7632645B1, “EGF receptor transactivation by G-protein-coupled receptors requires metalloproteinase cleavage of proHB-EGF” (Max-Planck-Gesellschaft zur forderung der Wissenschaften …, priority 1999, dated 2009)
At least one compound was matched to its structure with a doubt left.

Assays:
SHC = SHC tyrosine phosphorylation in COS-7 cells; type: cell-based
EGFR [1] = assay: EGFR tyrosine phosphorylation (transactivation) in COS-7 cells; type: cell-based; conditions: inhibitor pretreatment (CRM197 10 μg/ml or BB-94 5 μM), FIG. 3a, 4d
EGFR [2] = assay: EGFR tyrosine phosphorylation in PC-3 prostate carcinoma cells; type: cell-based, human; conditions: for effect on high constitutive phosphotyrosine content of the EGFR: unstarved PC-3 cells, long-term treatment, FIG. 4g
proHB-EGF = assay: Flow cytometry of cell surface proHB-EGF in non-transfected COS-7 cells; type: cell-based; conditions: batimastat preincubation, FIG. 4c
EGFR [3] = assay: EGFR tyrosine phosphorylation in PC12 cells; type: cell-based; conditions: data not shown
EGFR [4] = assay: EGFR tyrosine phosphorylation in HEK 293 cells transfected with the endothelin receptor; type: cell-based; conditions: HEK 293 cells transiently transfected with the endothelin receptor; inhibitor pretreatment; FIG. 3b (BB-94: data not shown)
human amphiregulin = conditions: reference 26; cited from earlier work

SMILES: CNC(=O)[C@H](Cc1ccccc1)NC(=O)[C@H](CC(C)C)[C@H](CSc1cccs1)C(=O)NO [batimastat]
- effect on GPCR-induced SHC tyrosine phosphorylation (SHC; COS-7 cells transfected with M1R, BB-94 preincubated, stimulated as in FIG. 3a, FIG. 4e): complete abrogation
- effect on TPA-induced SHC tyrosine phosphorylation (SHC; COS-7 cells, inhibitor pretreatment, FIG. 3c, 4e): complete abrogation
- effect on carbachol-induced tyrosine phosphorylation of the EGFR (EGFR [1]; COS-7 cells transfected with M1R, carbachol 1 mM 3 minutes): completely abrogated
- effect on LPA-induced tyrosine phosphorylation of the EGFR (EGFR [1]; COS-7 cells, LPA 10 μM 3 minutes): completely abrogated
- effect on TPA-induced tyrosine phosphorylation of the EGFR (EGFR [1]; COS-7 cells, TPA 1 μM 5 min): completely abrogated
- effect on bombesin-induced tyrosine phosphorylation of the EGFR (EGFR [2]; PC-3 cells starved for 36 hours, batimastat preincubation, 3 minutes stimulation, FIG. 4f): completely blocked
- effect on EGF-induced tyrosine phosphorylation of the EGFR (EGFR [2]; PC-3 cells starved for 36 hours, batimastat preincubation, EGF 7 ng/ml, FIG. 4f): completely blocked
- effect on TPA-induced tyrosine phosphorylation of the EGFR (EGFR [2]; PC-3 cells starved for 36 hours, batimastat preincubation, FIG. 4f): completely blocked
- effect on high constitutive phosphotyrosine content of the EGFR (EGFR [2]): inhibition of constitutive EGFR activity
- effect on high constitutive phosphotyrosine content of the EGFR (EGFR [2]; listed as BB-94): reduced
- effect on LPA-induced reduction of cell surface proHB-EGF (proHB-EGF): completely inhibited
- effect on bradykinin-stimulated EGFR tyrosine phosphorylation (EGFR [3]): Analogous results
- effect on ET-1-induced EGFR tyrosine phosphorylation (transactivation) (EGFR [4]): Analogous results
- effect on proteolytic maturation of human amphiregulin (human amphiregulin): block
